# From PMC8366451
# The chains behind the UniProt entries cited, without tags or fusion partners.
# UniProt O75832: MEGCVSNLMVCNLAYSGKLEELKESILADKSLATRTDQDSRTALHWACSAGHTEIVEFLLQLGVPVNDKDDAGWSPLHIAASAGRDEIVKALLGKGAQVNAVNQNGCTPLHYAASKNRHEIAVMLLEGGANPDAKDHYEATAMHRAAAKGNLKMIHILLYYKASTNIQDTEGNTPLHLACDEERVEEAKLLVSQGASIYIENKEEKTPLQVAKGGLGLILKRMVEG
# UniProt P08151: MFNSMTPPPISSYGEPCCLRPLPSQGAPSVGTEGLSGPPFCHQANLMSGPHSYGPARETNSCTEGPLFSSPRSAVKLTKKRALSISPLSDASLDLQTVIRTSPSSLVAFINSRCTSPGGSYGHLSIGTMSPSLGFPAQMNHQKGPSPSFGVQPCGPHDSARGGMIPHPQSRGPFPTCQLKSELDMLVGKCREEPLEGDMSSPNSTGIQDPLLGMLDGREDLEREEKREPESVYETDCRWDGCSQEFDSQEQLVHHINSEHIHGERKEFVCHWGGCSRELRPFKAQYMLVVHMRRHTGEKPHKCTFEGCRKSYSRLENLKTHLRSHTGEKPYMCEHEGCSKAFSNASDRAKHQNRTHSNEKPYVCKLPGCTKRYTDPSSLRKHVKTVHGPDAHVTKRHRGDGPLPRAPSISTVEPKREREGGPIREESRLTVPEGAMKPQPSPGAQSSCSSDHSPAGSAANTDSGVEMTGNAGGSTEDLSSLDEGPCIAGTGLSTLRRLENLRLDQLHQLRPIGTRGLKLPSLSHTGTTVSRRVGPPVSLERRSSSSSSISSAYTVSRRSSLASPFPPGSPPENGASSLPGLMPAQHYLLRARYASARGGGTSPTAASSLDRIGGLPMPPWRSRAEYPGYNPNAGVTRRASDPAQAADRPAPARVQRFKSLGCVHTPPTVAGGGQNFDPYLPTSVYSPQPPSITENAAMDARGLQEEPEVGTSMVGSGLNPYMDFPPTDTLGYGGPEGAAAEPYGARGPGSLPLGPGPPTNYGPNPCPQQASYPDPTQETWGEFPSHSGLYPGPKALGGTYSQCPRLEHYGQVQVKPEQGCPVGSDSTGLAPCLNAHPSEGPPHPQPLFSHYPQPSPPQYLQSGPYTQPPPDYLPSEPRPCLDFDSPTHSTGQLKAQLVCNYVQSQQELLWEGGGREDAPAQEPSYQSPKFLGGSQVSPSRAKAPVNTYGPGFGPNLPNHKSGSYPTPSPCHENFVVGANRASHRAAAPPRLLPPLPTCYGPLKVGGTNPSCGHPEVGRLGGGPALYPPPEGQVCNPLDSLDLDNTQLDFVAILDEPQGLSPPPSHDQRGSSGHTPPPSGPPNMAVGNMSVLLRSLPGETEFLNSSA
# No constants are given. Whether binding was seen depends on the method and setting. In cells and extracts the contact can be indirect. Some results given as binding are weak or reduced against the parent protein; the word gives no strength.
# Target: gankyrin (human) (UniProt O75832)
# Assay: co-IP; U2OS and MG63 cell lysates (25 mmol/L Tris-HCl, 150 mmol/L NaCl, 2 mmol/L EDTA, 0.1% Nonidet P-40) incubated with anti-gankyrin antibody and Protein A/G magnetic beads overnight at 4°C; Western blot with anti-Gli1; IgG as negative control
substance,measurement,value
Gli1 (from UniProt P08151 1-1106),binding,binds
